Data as given in PubChem BioAssay AID493014 (National Center for Advancing Translational Sciences (NCATS), 2011).
Screen size: about 340,000 compounds; about 170 (0.05%) were called active. The shares of active, inactive and inconclusive entries below differ from those in the screen. Calls follow the shape of the dose curve; as a rule, active = well fitted inhibition curve with a large enough effect in the signal ratio, with a control signal flat (not every such curve was filed as active); inconclusive = small, poorly fitted or top-dose-only effect, or effect the other way, or a change in a side signal; inactive = flat fitted curve, though single readings scatter; the % refers to the signal ratio. Where the call is inconclusive, the potency comes from a doubtful curve fit.
Potency is read from the fitted curve at half-maximal effect.

Test: qHTS Assay to Find Inhibitors of Chronic Active B-Cell Receptor Signaling;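 as to activity change, negative = inhibition: plate controls were basal doxycycline-induced cells for no effect and cells given 10 µM MG132 for full effect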
Conditions: ABC-DLBCL IkBa-CBG/CBR reporter, luminescence ratio (green luciferase fused to IkBa over red control in TMD8 lymphoma cells), 4 h; activity change, negative = inhibition: at 46.1 µM (top of the series)
Outline: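 Compounds up to 46 uM were incubated four hours with TMD8 cells whose green CBG68 luciferase is fused to IkappaBalpha; red CBR luminescence normalised the signal, and concentration-effect curves were fitted to fusion, red and ratio data.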
In the case of `O=C(c1ccc2c(c1)OCO2)N1CCN(S(=O)(=O)c2ccc(Cl)cc2)CC1`, the activity change, negative = inhibition is reported as “inactive”. For `C/C(=N\Nc1nc(N2CCCCC2)nc(N2CCOCC2)n1)c1cccs1`, the Potency was inconclusive: 28.2 µM [falling, single point]. In the case of `Cc1ccc(CCNC(=O)C2CC(c3cc(C(F)(F)F)cc(C(F)(F)F)c3)=NO2)cc1` (stereo unspecified), the activity change, negative = inhibition is reported as “inactive”. For `O=C(NNc1nc(Nc2ccccc2)nc(N2CCOCC2)n1)Nc1ccc(Cl)cc1`, the activity change, negative = inhibition was inconclusive: 4.53%. With `O=C(/C=C/C=C/c1ccccc1)CC1(O)C(=O)N(CCc2ccccc2)c2ccccc21` (stereo unspecified) the activity change, negative = inhibition was “inactive”. In the case of `COc1ccc(OCc2cc(C(=O)NCCN3CCCc4ccccc43)no2)c(Cl)c1`, the activity change, negative = inhibition is reported as inconclusive: -6.1%. With `Cc1n[nH]c(C)c1S(=O)(=O)N1CCCC(C(=O)Nc2ccc3c(c2)OCCO3)C1` (stereo unspecified) the activity change, negative = inhibition was inconclusive: 2.75%. In the case of `CCCCOc1ccc(S(=O)(=O)n2c(C)nc3ccccc32)cc1`, the activity change, negative = inhibition is reported as “inactive”. For `CCCn1cc(CN2CCC(n3nccc3NC(=O)c3ccc4c(c3)OCO4)CC2)c(C)n1`, the activity change, negative = inhibition was “inactive”. For `COc1cc(/C=N/NC(=S)Nc2cccc(C(=O)O)c2)ccc1O`, the Potency was inconclusive: 1.84 µM [rising, full curve, poor fit]. For `COc1ccccc1NC(=O)COc1ccc(-c2nn(C)c(=O)c3ccccc23)cc1`, the Potency was inconclusive: 25.1 µM [falling, single point]. With `CC(C)C(=O)N1CCN(CCN2C(=O)c3cccc4cccc(c34)C2=O)CC1` the activity change, negative = inhibition was inconclusive: -0.194%. With `CCCn1c(=O)c2c(nc3n2CCCN3Cc2ccccc2)n(C)c1=O` the activity change, negative = inhibition was inconclusive: 3.36%. In the case of `Cc1ccc2oc(=O)n(Cc3ccccc3OC(C)C)c2c1`, the activity change, negative = inhibition is reported as inconclusive: -0.574%. For `CC1(C)Cc2c(sc(NC(=O)C(=O)N3CCN(CCO)CC3)c2C(N)=O)CO1`, the Potency was inconclusive: 6.31 µM [falling, single point]. For `O=C(CNc1cccc(Cl)c1)c1ccc(Br)cc1`, the activity change, negative = inhibition was inconclusive: -13%. With `C/C(CCC1CC(C)OC1=O)=N\NC(N)=O` (stereo unspecified) the activity change, negative = inhibition was inconclusive: 6.99%. In the case of `C/C(=N\NC(=O)c1nc(C)cc(C)n1)c1ccccc1`, the Potency is reported as inconclusive: 6.51 µM [falling, single point]. For `O=[N+]([O-])c1ccc(-c2csc(Nc3ccccc3)[n+]2Cc2ccccc2)cc1`, the Potency was inconclusive: 5.17 µM [rising, full curve, poor fit]. For `COCC(C)n1c(C)cc(C(=O)CN2C(=O)NC(Cc3c[nH]c4ccccc34)C2=O)c1C` (stereo unspecified), the activity change, negative = inhibition was inconclusive: 7.57%. In the case of `Cc1cc(Cl)ccc1OCc1nc(-c2ccc(O)cc2)n[nH]1`, the Potency is reported as inconclusive: 23.1 µM [falling, single point].
